Some of the results follow.
How the values were obtained:
Experiment in all cases: log2 fold change, soluble protein after heating vs DMSO (PISA); higher = thermal stabilisation; K562 lysate, 10 uM; active = over 0.2 and 3.5 SD of the protein, either way, in both replicates (recomputed)
erlotinib = compound: C#Cc1cccc(Nc2ncnc3cc(OCCOC)c(OCCOC)cc23)c1 [erlotinib]
How it was run: (§1)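 Thermal stability, expressed as log-two fold change relative to solvent controls, is given from duplicates. Crude K562 extract in PBS pH 7.4 with 1 mM MgCl2, at 1 mg/mL protein, was treated with 10 μM compound for 30 min and heated in aliquots for 3 min across 48°C-58°C. After pooling, adjustment to 0.5% NP-40 at 4°C and centrifugation at 21,000xg for 90 min, supernatant protein was measured by TMTpro 16plex LC-MS/MS with channel sums equalised.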

Protein sequences, listed by entry. Tags and fused reporters are not part of them. Lines headed by an entry give the natural chain unless they say otherwise; changes in a name come on top.
UniProt Q13574: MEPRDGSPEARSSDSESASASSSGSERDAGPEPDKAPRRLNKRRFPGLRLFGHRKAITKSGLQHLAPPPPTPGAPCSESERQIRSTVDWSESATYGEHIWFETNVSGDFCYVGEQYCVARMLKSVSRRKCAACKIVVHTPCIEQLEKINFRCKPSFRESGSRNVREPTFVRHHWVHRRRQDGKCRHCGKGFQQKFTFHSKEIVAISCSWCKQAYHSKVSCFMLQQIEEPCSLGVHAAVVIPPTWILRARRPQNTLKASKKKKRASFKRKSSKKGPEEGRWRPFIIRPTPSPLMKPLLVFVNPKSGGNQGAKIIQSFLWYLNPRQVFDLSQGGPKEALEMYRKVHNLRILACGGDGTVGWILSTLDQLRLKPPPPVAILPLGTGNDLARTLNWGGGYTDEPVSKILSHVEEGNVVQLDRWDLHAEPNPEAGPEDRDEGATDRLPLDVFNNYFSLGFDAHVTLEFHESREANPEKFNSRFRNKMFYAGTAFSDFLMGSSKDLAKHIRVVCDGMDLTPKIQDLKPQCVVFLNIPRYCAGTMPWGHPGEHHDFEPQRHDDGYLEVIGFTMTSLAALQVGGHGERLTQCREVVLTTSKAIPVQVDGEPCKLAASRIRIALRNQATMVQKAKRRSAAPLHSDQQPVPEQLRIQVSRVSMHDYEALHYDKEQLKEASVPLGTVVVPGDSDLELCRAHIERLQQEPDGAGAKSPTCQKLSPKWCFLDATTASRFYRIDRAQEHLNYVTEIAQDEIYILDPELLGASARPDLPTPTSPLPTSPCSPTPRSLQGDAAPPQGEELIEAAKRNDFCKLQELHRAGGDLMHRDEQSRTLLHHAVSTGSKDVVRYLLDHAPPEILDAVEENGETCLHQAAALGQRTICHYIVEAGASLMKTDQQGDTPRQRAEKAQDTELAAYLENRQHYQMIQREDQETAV
UniProt Q6XZF7: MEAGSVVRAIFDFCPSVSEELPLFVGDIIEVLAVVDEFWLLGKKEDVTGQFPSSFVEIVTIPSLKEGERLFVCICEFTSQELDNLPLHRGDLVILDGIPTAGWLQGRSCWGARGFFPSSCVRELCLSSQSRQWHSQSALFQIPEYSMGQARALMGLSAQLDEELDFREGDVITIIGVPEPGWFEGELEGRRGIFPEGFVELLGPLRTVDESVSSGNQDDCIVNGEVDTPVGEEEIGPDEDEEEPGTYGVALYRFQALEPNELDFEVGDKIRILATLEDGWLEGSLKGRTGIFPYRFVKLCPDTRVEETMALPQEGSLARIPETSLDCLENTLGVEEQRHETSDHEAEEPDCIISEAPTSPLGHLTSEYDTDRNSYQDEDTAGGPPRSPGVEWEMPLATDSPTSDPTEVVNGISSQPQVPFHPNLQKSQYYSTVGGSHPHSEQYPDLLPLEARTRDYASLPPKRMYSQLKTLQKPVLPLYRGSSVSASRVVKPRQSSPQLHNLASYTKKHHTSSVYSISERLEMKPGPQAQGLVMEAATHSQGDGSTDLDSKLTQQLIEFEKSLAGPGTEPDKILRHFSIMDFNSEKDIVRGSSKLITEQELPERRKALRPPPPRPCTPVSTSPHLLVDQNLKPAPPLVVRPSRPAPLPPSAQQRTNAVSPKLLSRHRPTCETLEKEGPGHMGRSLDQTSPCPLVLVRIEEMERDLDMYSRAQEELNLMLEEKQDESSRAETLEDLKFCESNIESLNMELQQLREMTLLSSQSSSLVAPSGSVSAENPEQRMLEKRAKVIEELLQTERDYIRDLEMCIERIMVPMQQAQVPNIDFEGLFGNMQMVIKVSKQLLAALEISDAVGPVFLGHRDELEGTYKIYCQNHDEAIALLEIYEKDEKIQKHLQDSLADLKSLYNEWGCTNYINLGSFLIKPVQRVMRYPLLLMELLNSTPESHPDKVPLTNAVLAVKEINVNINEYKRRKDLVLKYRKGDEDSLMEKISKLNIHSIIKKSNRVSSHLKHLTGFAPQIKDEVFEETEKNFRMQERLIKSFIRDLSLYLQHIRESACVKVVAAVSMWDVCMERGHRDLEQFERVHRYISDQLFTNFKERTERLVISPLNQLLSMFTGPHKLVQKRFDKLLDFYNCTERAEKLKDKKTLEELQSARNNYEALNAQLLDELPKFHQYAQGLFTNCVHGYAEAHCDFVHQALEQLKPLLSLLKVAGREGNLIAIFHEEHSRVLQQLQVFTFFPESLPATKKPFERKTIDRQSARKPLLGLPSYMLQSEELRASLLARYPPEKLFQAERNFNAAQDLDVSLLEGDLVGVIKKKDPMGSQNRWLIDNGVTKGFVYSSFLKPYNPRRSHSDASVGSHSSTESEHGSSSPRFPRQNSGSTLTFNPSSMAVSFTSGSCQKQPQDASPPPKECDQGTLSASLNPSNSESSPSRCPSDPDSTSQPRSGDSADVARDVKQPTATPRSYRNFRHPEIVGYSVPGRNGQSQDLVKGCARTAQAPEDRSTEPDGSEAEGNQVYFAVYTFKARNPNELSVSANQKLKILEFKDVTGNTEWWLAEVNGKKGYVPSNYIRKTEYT
UniProt Q9Y2L1: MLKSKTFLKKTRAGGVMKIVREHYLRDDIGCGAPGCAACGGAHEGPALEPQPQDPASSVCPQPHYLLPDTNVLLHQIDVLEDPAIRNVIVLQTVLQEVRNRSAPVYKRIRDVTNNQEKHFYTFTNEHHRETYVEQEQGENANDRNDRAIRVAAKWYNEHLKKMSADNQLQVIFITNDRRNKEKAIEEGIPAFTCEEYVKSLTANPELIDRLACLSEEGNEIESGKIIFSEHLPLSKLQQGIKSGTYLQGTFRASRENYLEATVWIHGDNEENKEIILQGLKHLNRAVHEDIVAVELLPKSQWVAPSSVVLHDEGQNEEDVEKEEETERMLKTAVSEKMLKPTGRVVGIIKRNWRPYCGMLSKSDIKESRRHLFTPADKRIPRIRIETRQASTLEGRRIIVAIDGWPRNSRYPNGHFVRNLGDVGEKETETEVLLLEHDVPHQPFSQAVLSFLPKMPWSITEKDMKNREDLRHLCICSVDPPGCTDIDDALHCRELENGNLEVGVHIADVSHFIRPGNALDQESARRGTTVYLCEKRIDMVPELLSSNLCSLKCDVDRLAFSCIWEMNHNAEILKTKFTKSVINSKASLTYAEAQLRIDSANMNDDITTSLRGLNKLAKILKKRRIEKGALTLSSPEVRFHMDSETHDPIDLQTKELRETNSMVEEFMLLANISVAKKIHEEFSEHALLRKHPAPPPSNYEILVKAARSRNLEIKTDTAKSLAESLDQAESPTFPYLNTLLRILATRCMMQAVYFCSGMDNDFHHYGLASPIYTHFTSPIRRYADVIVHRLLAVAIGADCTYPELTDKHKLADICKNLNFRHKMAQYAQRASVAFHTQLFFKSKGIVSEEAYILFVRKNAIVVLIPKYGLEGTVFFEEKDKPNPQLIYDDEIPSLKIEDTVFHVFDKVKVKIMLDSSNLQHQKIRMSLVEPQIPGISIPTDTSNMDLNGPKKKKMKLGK
UniProt Q96KC8: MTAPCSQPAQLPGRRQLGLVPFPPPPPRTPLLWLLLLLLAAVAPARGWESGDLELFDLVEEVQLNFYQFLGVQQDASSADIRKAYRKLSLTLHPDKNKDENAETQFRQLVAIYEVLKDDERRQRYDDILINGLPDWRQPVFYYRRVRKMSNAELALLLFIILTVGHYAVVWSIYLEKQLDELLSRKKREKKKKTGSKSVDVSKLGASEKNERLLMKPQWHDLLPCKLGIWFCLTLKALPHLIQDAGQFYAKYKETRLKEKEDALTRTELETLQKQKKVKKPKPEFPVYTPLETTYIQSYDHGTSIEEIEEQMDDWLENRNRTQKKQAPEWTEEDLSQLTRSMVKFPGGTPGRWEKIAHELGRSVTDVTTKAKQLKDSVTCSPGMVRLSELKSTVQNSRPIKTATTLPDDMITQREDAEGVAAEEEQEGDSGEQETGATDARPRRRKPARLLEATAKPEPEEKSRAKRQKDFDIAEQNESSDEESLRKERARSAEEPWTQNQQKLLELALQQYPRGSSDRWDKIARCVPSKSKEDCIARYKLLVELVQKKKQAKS
UniProt Q8IYB7: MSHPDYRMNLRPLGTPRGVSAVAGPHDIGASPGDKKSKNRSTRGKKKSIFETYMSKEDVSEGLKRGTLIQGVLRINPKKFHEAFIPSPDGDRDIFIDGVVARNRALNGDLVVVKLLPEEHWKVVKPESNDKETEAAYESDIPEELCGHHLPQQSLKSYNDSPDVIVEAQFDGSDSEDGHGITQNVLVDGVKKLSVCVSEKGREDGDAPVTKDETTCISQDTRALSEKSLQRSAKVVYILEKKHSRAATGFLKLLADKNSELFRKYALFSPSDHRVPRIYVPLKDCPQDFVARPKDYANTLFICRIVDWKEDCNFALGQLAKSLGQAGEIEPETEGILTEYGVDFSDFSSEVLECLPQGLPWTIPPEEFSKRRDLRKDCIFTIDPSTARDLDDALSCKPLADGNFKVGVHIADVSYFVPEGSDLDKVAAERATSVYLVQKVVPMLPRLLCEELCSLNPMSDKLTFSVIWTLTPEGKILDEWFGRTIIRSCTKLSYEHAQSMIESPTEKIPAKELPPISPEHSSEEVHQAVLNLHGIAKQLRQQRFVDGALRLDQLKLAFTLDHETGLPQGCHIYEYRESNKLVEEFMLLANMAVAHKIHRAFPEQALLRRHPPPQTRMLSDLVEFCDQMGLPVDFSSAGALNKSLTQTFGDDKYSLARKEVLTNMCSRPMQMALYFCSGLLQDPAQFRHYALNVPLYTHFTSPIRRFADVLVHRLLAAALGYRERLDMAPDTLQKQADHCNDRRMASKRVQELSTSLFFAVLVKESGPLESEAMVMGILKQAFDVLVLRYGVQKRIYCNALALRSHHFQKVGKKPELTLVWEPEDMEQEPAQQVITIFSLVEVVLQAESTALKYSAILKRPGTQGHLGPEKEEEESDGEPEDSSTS
UniProt Q9NSV4, whole entry, looked up: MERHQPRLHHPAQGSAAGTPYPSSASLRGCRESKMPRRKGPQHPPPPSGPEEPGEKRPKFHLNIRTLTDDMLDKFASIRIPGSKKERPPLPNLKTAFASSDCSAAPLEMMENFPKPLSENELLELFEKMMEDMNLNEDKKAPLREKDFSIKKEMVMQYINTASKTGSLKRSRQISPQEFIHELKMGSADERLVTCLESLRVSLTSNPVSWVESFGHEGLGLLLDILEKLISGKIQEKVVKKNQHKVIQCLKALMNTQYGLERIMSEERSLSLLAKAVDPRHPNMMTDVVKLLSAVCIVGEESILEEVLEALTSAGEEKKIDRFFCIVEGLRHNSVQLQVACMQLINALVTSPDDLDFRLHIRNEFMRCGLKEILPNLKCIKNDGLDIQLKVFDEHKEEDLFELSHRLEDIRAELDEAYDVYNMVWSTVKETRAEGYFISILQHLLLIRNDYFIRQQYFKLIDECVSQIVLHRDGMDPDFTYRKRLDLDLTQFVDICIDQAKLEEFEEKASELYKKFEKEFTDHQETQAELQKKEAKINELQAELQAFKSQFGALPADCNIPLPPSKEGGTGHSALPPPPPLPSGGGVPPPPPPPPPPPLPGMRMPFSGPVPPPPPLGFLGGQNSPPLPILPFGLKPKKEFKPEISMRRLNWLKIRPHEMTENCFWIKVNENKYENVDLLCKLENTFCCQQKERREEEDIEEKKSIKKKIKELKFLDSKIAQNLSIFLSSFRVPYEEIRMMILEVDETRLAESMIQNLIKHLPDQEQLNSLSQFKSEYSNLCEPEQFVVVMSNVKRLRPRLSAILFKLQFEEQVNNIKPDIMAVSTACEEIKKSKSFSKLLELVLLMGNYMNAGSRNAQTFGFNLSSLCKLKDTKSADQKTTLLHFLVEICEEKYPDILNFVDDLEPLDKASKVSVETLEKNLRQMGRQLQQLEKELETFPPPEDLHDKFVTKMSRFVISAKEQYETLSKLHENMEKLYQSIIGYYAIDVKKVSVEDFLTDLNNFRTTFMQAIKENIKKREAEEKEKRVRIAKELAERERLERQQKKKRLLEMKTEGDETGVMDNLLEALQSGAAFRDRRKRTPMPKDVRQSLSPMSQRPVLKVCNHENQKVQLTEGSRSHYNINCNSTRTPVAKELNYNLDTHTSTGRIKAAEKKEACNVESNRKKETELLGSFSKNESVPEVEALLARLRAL
UniProt Q99704: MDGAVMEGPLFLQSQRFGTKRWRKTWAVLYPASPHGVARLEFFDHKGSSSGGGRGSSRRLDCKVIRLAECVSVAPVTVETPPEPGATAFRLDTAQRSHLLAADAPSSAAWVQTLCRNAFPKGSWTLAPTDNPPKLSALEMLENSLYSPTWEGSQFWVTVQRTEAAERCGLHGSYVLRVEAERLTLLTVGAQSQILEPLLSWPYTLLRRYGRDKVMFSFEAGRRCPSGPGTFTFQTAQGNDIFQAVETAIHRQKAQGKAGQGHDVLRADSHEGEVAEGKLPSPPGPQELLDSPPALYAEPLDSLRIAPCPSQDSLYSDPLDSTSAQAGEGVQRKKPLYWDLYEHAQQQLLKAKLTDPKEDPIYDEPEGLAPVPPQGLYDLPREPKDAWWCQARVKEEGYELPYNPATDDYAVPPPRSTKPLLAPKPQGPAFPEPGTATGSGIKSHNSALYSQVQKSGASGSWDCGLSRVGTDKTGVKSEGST

[1] = compound: C/C(=N\NC(=O)C1=CC(=CC=C1)S(=O)(=O)N2CCOCC2)/C3=C(C=CC(=C3)Cl)O
How it was run: as §1

[2] = compound: C1=CC(=CC=C1C2=NC3=C(N2)C=C(C=C3)C(=O)N)OC4=CC=C(C=C4)Cl
How it was run: as §1

[3] = compound: C1=CC2=C(C=CC(=C2)/C=C\3/C(=O)NC(=NCC4=CC=CS4)S3)N=C1
How it was run: as §1

[4] = compound: C1=CC2=NC=CN=C2C=C1/C=C/3\C(=O)NC(=O)S3
How it was run: as §1

[5] = compound: C1=CC=C(C=C1)C2=NC(=C(N2)C3=CC=NC=C3)C4=CC(=C(C=C4)Cl)O
How it was run: as §1

[6] = compound: C1=CC=C2C(=C1)C3=NNC4=CC=CC(=C43)C2=O
How it was run: as §1

[7] = compound: C1CCN(C1)C(=O)NC2=CC=CC(=C2)NC3=NC=C(C(=N3)NCCC4=CN=CN4)Br
How it was run: as §1

[8] = compound: C1CN(CCC1(CC2=CC=C(C=C2)Cl)N)C3=NC=NC4=C3C=CN4
How it was run: as §1

IRAK-1-4 Inhibitor I = compound: C1COCCN1CCN2C3=CC=CC=C3N=C2NC(=O)C4=CC(=CC=C4)[N+](=O)[O-] [IRAK-1-4 Inhibitor I]
How it was run: as §1

Measured: log2 fold change

DHODH (UniProt Q02127)
inactive: erlotinib -0.006 | [1] -0.014 | [2] 0.036 | [3] 0.003 | [4] 0.003 | [5] -0.009 | [6] -0.012 | [7] -0.008 | [8] 0.006 | IRAK-1-4 Inhibitor I -0.002

DGKZ (UniProt Q13574)
inactive: erlotinib 0.053 | [1] -0.039 | [2] 0.057 | [3] 0.005 | [4] 0.14 | [5] 0.05 | [6] 0.019 | [7] -0.039 | [8] -0.044 | IRAK-1-4 Inhibitor I -0.008

DLGAP5 (UniProt Q15398)
inactive: erlotinib -0.015 | [1] 0.023 | [2] -0.006 | [3] -0.024 | [4] -0.02 | [5] 0.026 | [6] -0.021 | [7] -0.013 | [8] -0.013 | IRAK-1-4 Inhibitor I -0.009

DNMBP (UniProt Q6XZF7)
inactive: erlotinib 0.06 | [1] 0.675 | [2] 0.057 | [3] 0.042 | [4] -0.117 | [5] 0.03 | [6] -0.033 | [7] 0.012 | [8] -0.006 | IRAK-1-4 Inhibitor I 0.072

DMD (UniProt P11532)
inactive: erlotinib -0.012 | [1] 0.013 | [2] 0.027 | [3] -0.015 | [4] -0.015 | [5] -0.008 | [6] 0.004 | [7] -0.006 | [8] -0.001 | IRAK-1-4 Inhibitor I 0.017

DOHH (UniProt Q9BU89)
inactive: erlotinib 0.011 | [1] -0.051 | [2] -0.01 | [3] 0.005 | [4] -0.055 | [5] 0.03 | [6] -0.042 | [7] -0.029 | [8] 0.078 | IRAK-1-4 Inhibitor I 0.043

DNAJB4 (UniProt Q9UDY4)
inactive: erlotinib -0.03 | [1] -0.015 | [2] -0.016 | [3] -0.02 | [4] 0.053 | [5] 0.057 | [6] -0.008 | [7] -0.034 | [8] 0.015 | IRAK-1-4 Inhibitor I 0.015

DPCD (UniProt Q9BVM2)
inactive: erlotinib 0.051 | [1] 0.057 | [2] 0.061 | [3] -0.011 | [4] 0.022 | [5] -0.007 | [6] -0.002 | [7] 0.013 | [8] -0.031 | IRAK-1-4 Inhibitor I -0.002

DIS3 (UniProt Q9Y2L1)
inactive: erlotinib 0.018 | [1] 0.039 | [2] 0.01 | [3] -0.004 | [4] 0.002 | [5] -0.01 | [6] -0.017 | [7] 0.027 | [8] 0.031 | IRAK-1-4 Inhibitor I 0.012

DFFB (UniProt O76075)
inactive: erlotinib -0.055 | [1] 0.062 | [2] 0.071 | [3] 0.048 | [4] 0.084 | [5] 0.047 | [6] 0 | [7] 0.013 | [8] -0.019 | IRAK-1-4 Inhibitor I 0.008

DOCK9 isoform 4 (UniProt Q9BZ29)
inactive: erlotinib 0.034 | [1] 0 | [2] -0.015 | [3] 0.021 | [4] 0.055 | [5] 0.002 | [6] -0.072 | [7] -0.018 | [8] 0.034 | IRAK-1-4 Inhibitor I 0.011

DLST (UniProt P36957)
inactive: erlotinib 0 | [1] -0.019 | [2] 0.027 | [3] 0.021 | [4] -0.011 | [5] -0.012 | [6] -0.056 | [7] 0.004 | [8] 0 | IRAK-1-4 Inhibitor I 0.007

DNAJC1 (UniProt Q96KC8)
inactive: erlotinib -0.018 | [1] -0.011 | [2] -0.159 | [3] -0.053 | [4] 0.032 | [5] -0.044 | [6] -0.039 | [7] -0.011 | [8] 0.017 | IRAK-1-4 Inhibitor I 0.013

DIS3L2 (UniProt Q8IYB7)
inactive: erlotinib 0.004 | [1] 0.057 | [2] -0.039 | [3] -0.055 | [4] -0.002 | [5] -0.007 | [6] 0.013 | [7] -0.013 | [8] -0.023 | IRAK-1-4 Inhibitor I -0.048

DMAC2L (UniProt Q99766)
inactive: erlotinib -0.057 | [1] 0.033 | [2] -0.017 | [3] 0.008 | [4] -0.074 | [5] 0.015 | [6] -0.066 | [7] -0.068 | [8] 0.027 | IRAK-1-4 Inhibitor I -0.005

Fetched one by one from the list above, 2 records:
DNAJC1 (UniProt Q96KC8)
inactive: erlotinib -0.018 | [1] -0.011 | [2] -0.159 | [3] -0.053 | [4] 0.032 | [5] -0.044 | [6] -0.039 | [7] -0.011 | [8] 0.017 | IRAK-1-4 Inhibitor I 0.013

DLST (UniProt P36957)
inactive: erlotinib 0 | [1] -0.019 | [2] 0.027 | [3] 0.021 | [4] -0.011 | [5] -0.012 | [6] -0.056 | [7] 0.004 | [8] 0 | IRAK-1-4 Inhibitor I 0.007

Carrying on.

DOCK7 (UniProt Q96N67)
inactive: erlotinib 0.078 | [1] 0.009 | [2] -0.045 | [3] -0.041 | [4] -0.126 | [5] 0.014 | [6] -0.023 | [7] -0.003 | [8] 0.016 | IRAK-1-4 Inhibitor I 0.024

DNAJC2 (UniProt Q99543)
inactive: erlotinib -0.017 | [1] -0.028 | [2] -0.047 | [3] 0.021 | [4] -0.007 | [5] -0.009 | [6] 0.02 | [7] 0.013 | [8] -0.021 | IRAK-1-4 Inhibitor I -0.079

DICER1 (UniProt Q9UPY3)
inactive: erlotinib 0.013 | [1] -0.088 | [2] -0.056 | [3] -0.023 | [4] -0.027 | [5] 0.03 | [6] -0.025 | [7] -0.064 | [8] -0.042 | IRAK-1-4 Inhibitor I -0.016

DNAJC19 (UniProt Q96DA6)
inactive: erlotinib 0.013 | [1] -0.033 | [2] -0.042 | [3] -0.01 | [4] 0.025 | [5] -0.023 | [6] -0.006 | [7] 0.028 | [8] 0.005 | IRAK-1-4 Inhibitor I 0.005

DIAPH3 (UniProt Q9NSV4)
inactive: erlotinib 0.042 | [1] 0.07 | [2] -0.022 | [3] 0.05 | [4] 0.074 | [5] 0.045 | [6] -0.066 | [7] -0.04 | [8] -0.082 | IRAK-1-4 Inhibitor I -0.041

DHX36 (UniProt Q9H2U1)
inactive: erlotinib -0.013 | [1] -0.021 | [2] 0.014 | [3] 0.021 | [4] 0.003 | [5] -0.006 | [6] 0.005 | [7] 0.027 | [8] 0.014 | IRAK-1-4 Inhibitor I 0.018

DHX16 (UniProt O60231)
inactive: erlotinib 0.004 | [1] -0.037 | [2] 0.013 | [3] -0.003 | [4] -0.051 | [5] -0.001 | [6] 0 | [7] -0.003 | [8] 0.035 | IRAK-1-4 Inhibitor I 0.006

DNAAF5 (UniProt Q86Y56)
inactive: erlotinib -0.008 | [1] 0.041 | [2] -0.062 | [3] -0.057 | [4] 0.021 | [5] -0.016 | [6] -0.08 | [7] -0.003 | [8] 0.007 | IRAK-1-4 Inhibitor I -0.039

DOLPP1 (UniProt Q86YN1)
inactive: erlotinib 0.004 | [1] -0.283 | [2] -0.052 | [3] 0.014 | [4] -0.012 | [5] -0.031 | [6] -0.161 | [7] -0.101 | [8] 0.036 | IRAK-1-4 Inhibitor I -0.022

DNAJB14 (UniProt Q8TBM8)
inactive: erlotinib -0.04 | [1] -0.045 | [2] 0.055 | [3] -0.026 | [4] -0.013 | [5] -0.068 | [6] 0 | [7] 0.022 | [8] 0.089 | IRAK-1-4 Inhibitor I 0.049

DHX15 (UniProt O43143)
inactive: erlotinib -0.025 | [1] 0.04 | [2] 0 | [3] -0.038 | [4] -0.002 | [5] -0.006 | [6] -0.007 | [7] -0.003 | [8] -0.007 | IRAK-1-4 Inhibitor I 0.011

DOK1 (UniProt Q99704)
inactive: erlotinib -0.024 | [1] 0.051 | [2] 0.023 | [3] 0.015 | [4] 0.002 | [5] -0.041 | [6] -0.02 | [7] 0.021 | [8] 0.06 | IRAK-1-4 Inhibitor I 0.021

DIPK2A (UniProt Q8NDZ4)
inactive: erlotinib -0.091 | [1] 0.03 | [2] -0.209 | [3] 0 | [4] -0.161 | [5] 0.059 | [6] 0.194 | [7] -0.26 | [8] -0.287 | IRAK-1-4 Inhibitor I -0.035

DIMT1 (UniProt Q9UNQ2)
inactive: erlotinib -0.051 | [1] -0.033 | [2] -0.012 | [3] 0.009 | [4] -0.005 | [5] -0.007 | [6] -0.018 | [7] 0.019 | [8] -0.031 | IRAK-1-4 Inhibitor I 0.001

Source: the supplement of paper PMC10849652
